# Assay results taken from patent US7754462B2, “Enzyme catalysis in the presence of ionic liquids” (priority 2000, dated 2010).
# Legend:
# [1] = test system: β-Galactosidase from Bacillus circulans; assay: Synthesis of lactose by reverse hydrolysis in water/ionic liquid mixture; format: biochemical; settings: 35° C., 24 h
# [2] = test system: β-Galactosidase from Bacillus circulans; assay: Synthesis of N-acetyl lactosamine by β-galactosidase (transgalactosylation) with ionic liquid; format: biochemical
# [3] = fraction 12.5 vol %, Lactose/GlcNAc ratio 1:2.4
# [4] = fraction 18.75 vol %, Lactose/GlcNAc ratio 1:2.4
substance,measurement,setting,value
Methyl-methyl-imidazolium-methyl sulphate [MMIm^+ MeSO4^−],Yield [%] (lactose),[1]; fraction of ionic liquid 10 %,0%
same,Yield [%] (lactose),[1]; fraction of ionic liquid 20 %,0%
same,Yield [%] (lactose),[1]; fraction of ionic liquid 30 %,4%
same,Yield [%] (lactose),[1]; fraction of ionic liquid 40 %,12%
same,Yield [%] (lactose),[1]; fraction of ionic liquid 50 %,15%
same,Yield [%] (lactose),[1]; fraction of ionic liquid 60 %,15%
same,Yield [%] (lactose),[1]; fraction of ionic liquid 70 %,16%
same,Yield [%] (lactose),[1]; fraction of ionic liquid 80 %,16%
same,Yield [%] (lactose),[1]; fraction of ionic liquid 90 %,16%
same,Yield [%] (lactose),[1]; fraction of ionic liquid 100 % (water content 0.6%),17%
same,Yield [%] after 60 min (N-acetyl lactosamine),[2]; [3],40%
same,Yield [%] after 100 min (N-acetyl lactosamine),[2]; [3],40%
same,Yield [%] after 60 min (N-acetyl lactosamine),[2]; [4],44%
same,Yield [%] after 100 min (N-acetyl lactosamine),[2]; [4],43%
same,Yield [%] after 60 min (N-acetyl lactosamine),"[2]; fraction 25 vol %, Lactose/GlcNAc ratio 1:4.8",49%
same,Yield [%] after 100 min (N-acetyl lactosamine),"[2]; fraction 25 vol %, Lactose/GlcNAc ratio 1:4.8, cell says (90 min)",55%
